PubChem BioAssay AID652243, Drosophila RNAi Screening Center | 2013
The deposit covers about 24,000 reagents; shown is a random part of those with a known target gene and a result. Over the whole deposit, 246 (1%) got an active call. 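Plates not normalised; calls are printed but the firefly/Renilla ratio behind them is not deposited; fold cut for lowering reported inconsistently.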 Raw values vary from plate to plate and are shown uncorrected. Reagents against one gene are numbered here. Names joined by + are all predicted targets of the reagent. Not stated in the record: the amount of reagent.

Aim: 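Knock-downs that decrease or increase androgen receptor reporter signal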 (primary screen)
System: Drosophila S2R+ cells
Reagent: long dsRNA against Drosophila genes
Timing: 72 h (48 h, then 24 h hormone)
Challenge: synthetic androgen R1881 at 10 nM for 24 h
Measurement: 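Per-well raw luminescence of the androgen-driven firefly reporter and of the Renilla control, two replicates each, without normalisation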
Direction: firefly reporter light: higher = more light from androgen-responsive reporter; Renilla control light: higher = more constitutive control signal (cell number, transfection)
Hit rule: 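Hit when the log firefly-to-Renilla ratio dropped or increased by a fixed fold versus the mean of GFP or LacZ controls across duplicate plates; lowering cut given as 1.5 and as 3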
Calls: active = hit: reporter lowered or raised; inactive = no hit

Knock-down of CG12118 (GeneID 31857) gave: firefly reporter light, replicate 1 = 1.09e5; firefly reporter light, replicate 2 = 1.04e5; Renilla control light, replicate 1 = 6.77e5; Renilla control light, replicate 2 = 6.52e5; inactive.
Silencing of pip (GeneID 40104) #1 resulted in: firefly reporter light, replicate 1 = 2.21e5; firefly reporter light, replicate 2 = 1.88e5; Renilla control light, replicate 1 = 2.97e6; Renilla control light, replicate 2 = 1.52e6; inactive.
After knock-down of pip (GeneID 40104) #2 the results were firefly reporter light, replicate 1 = 1.03e6; firefly reporter light, replicate 2 = 8.95e5; Renilla control light, replicate 1 = 2.33e6; Renilla control light, replicate 2 = 1.70e6; inactive.
Depletion of CG11929 (GeneID 33668) came out at: firefly reporter light, replicate 1 = 89664; firefly reporter light, replicate 2 = 54674; Renilla control light, replicate 1 = 5.68e5; Renilla control light, replicate 2 = 4.41e5; inactive.
Against Rnp4F (GeneID 31448) #1, the entry reads firefly reporter light, replicate 1 = 55932; firefly reporter light, replicate 2 = 91926; Renilla control light, replicate 1 = 7.97e5; Renilla control light, replicate 2 = 6.05e5; inactive.
For Rnp4F (GeneID 31448) #2, the values are firefly reporter light, replicate 1 = 1.03e5; firefly reporter light, replicate 2 = 1.69e5; Renilla control light, replicate 1 = 2.03e5; Renilla control light, replicate 2 = 2.27e5; inactive.
HPS1 (GeneID 36656) gave firefly reporter light, replicate 1 = 9.81e5; firefly reporter light, replicate 2 = 1.46e6; Renilla control light, replicate 1 = 1.92e6; Renilla control light, replicate 2 = 2.04e6; inactive.
Against Impbeta11 + asRNA:CR43429 the deposit lists firefly reporter light, replicate 1 = 57787; firefly reporter light, replicate 2 = 87191; Renilla control light, replicate 1 = 9.35e5; Renilla control light, replicate 2 = 9.35e5; inactive.
Knock-down of CG3163 (GeneID 37836) #1 resulted in: firefly reporter light, replicate 1 = 7.29e5; firefly reporter light, replicate 2 = 8.24e5; Renilla control light, replicate 1 = 1.13e6; Renilla control light, replicate 2 = 1.05e6; inactive.
CG3163 (GeneID 37836) #2 showed firefly reporter light, replicate 1 = 2.89e5; firefly reporter light, replicate 2 = 4.80e5; Renilla control light, replicate 1 = 8.38e5; Renilla control light, replicate 2 = 1.29e6; inactive.
After knock-down of ORMDL (GeneID 40404) #1, the screen gave firefly reporter light, replicate 1 = 2.03e5; firefly reporter light, replicate 2 = 2.00e5; Renilla control light, replicate 1 = 2.07e6; Renilla control light, replicate 2 = 2.47e6; inactive.
Depletion of ORMDL (GeneID 40404) #2 gave: firefly reporter light, replicate 1 = 2.17e5; firefly reporter light, replicate 2 = 2.30e5; Renilla control light, replicate 1 = 4.59e5; Renilla control light, replicate 2 = 7.57e5; inactive.
Depletion of Pen (GeneID 34338) #1 gave: firefly reporter light, replicate 1 = 9.21e5; firefly reporter light, replicate 2 = 1.19e6; Renilla control light, replicate 1 = 1.21e6; Renilla control light, replicate 2 = 1.92e6; inactive.
Pen (GeneID 34338) #2 gave firefly reporter light, replicate 1 = 6.45e5; firefly reporter light, replicate 2 = 6.24e5; Renilla control light, replicate 1 = 1.92e6; Renilla control light, replicate 2 = 1.80e6; inactive.
Depletion of CG4953 (GeneID 34373) resulted in: firefly reporter light, replicate 1 = 9.50e5; firefly reporter light, replicate 2 = 4.22e5; Renilla control light, replicate 1 = 1.70e6; Renilla control light, replicate 2 = 1.18e6; inactive.
Knock-down of CG10462 (GeneID 35260) resulted in: firefly reporter light, replicate 1 = 9.70e5; firefly reporter light, replicate 2 = 7.46e5; Renilla control light, replicate 1 = 1.01e6; Renilla control light, replicate 2 = 9.11e5; inactive.
Depletion of not (GeneID 40030) came out at: firefly reporter light, replicate 1 = 92474; firefly reporter light, replicate 2 = 89140; Renilla control light, replicate 1 = 6.98e5; Renilla control light, replicate 2 = 5.65e5; inactive.
With knock-down of CG14507 (GeneID 43461) #1, the screen gave firefly reporter light, replicate 1 = 1.39e5; firefly reporter light, replicate 2 = 1.31e5; Renilla control light, replicate 1 = 2.25e6; Renilla control light, replicate 2 = 2.28e6; inactive.
With knock-down of CG14507 (GeneID 43461) #2, the record shows firefly reporter light, replicate 1 = 8.80e5; firefly reporter light, replicate 2 = 3.80e5; Renilla control light, replicate 1 = 3.74e6; Renilla control light, replicate 2 = 1.63e6; inactive.
Knock-down of CG31855 (GeneID 318983) #1 resulted in: firefly reporter light, replicate 1 = 1.47e5; firefly reporter light, replicate 2 = 1.66e5; Renilla control light, replicate 1 = 7.48e5; Renilla control light, replicate 2 = 9.48e5; inactive.
CG31855 (GeneID 318983) #2 showed firefly reporter light, replicate 1 = 6.48e5; firefly reporter light, replicate 2 = 7.61e5; Renilla control light, replicate 1 = 1.02e6; Renilla control light, replicate 2 = 9.98e5; inactive.
Against CG13074 (GeneID 39760) the deposit lists firefly reporter light, replicate 1 = 2.58e5; firefly reporter light, replicate 2 = 2.28e5; Renilla control light, replicate 1 = 2.46e6; Renilla control light, replicate 2 = 2.04e6; inactive.
After knock-down of hpRNA:CR18854 (GeneID 10178800) #1 the results were firefly reporter light, replicate 1 = 2.58e5; firefly reporter light, replicate 2 = 3.17e5; Renilla control light, replicate 1 = 1.61e6; Renilla control light, replicate 2 = 1.65e6; inactive.
Depletion of hpRNA:CR18854 (GeneID 10178800) #2 gave: firefly reporter light, replicate 1 = 3.82e5; firefly reporter light, replicate 2 = 5.32e5; Renilla control light, replicate 1 = 9.95e5; Renilla control light, replicate 2 = 1.31e6; inactive.
CG1764 (GeneID 32281) gave firefly reporter light, replicate 1 = 2.18e5; firefly reporter light, replicate 2 = 1.38e5; Renilla control light, replicate 1 = 1.01e6; Renilla control light, replicate 2 = 7.68e5; inactive.
With knock-down of FarO (GeneID 45707) the results were firefly reporter light, replicate 1 = 3.70e5; firefly reporter light, replicate 2 = 4.38e5; Renilla control light, replicate 1 = 4.82e6; Renilla control light, replicate 2 = 3.92e6; inactive.
CG13048 (GeneID 39789) #1 gave firefly reporter light, replicate 1 = 1.62e5; firefly reporter light, replicate 2 = 1.20e5; Renilla control light, replicate 1 = 2.17e6; Renilla control light, replicate 2 = 1.64e6; inactive.
CG13048 (GeneID 39789) #2 scored firefly reporter light, replicate 1 = 4.11e5; firefly reporter light, replicate 2 = 3.92e5; Renilla control light, replicate 1 = 7.37e5; Renilla control light, replicate 2 = 5.43e5; inactive.
